Results on 1 substance are retold here after paper doi:10.1101/2024.01.10.574969.

By UniProt entry, the sequences of proteins in these tests, tags left out. Residues count along the entry.
UniProt Q9ULT6, residues 56-936: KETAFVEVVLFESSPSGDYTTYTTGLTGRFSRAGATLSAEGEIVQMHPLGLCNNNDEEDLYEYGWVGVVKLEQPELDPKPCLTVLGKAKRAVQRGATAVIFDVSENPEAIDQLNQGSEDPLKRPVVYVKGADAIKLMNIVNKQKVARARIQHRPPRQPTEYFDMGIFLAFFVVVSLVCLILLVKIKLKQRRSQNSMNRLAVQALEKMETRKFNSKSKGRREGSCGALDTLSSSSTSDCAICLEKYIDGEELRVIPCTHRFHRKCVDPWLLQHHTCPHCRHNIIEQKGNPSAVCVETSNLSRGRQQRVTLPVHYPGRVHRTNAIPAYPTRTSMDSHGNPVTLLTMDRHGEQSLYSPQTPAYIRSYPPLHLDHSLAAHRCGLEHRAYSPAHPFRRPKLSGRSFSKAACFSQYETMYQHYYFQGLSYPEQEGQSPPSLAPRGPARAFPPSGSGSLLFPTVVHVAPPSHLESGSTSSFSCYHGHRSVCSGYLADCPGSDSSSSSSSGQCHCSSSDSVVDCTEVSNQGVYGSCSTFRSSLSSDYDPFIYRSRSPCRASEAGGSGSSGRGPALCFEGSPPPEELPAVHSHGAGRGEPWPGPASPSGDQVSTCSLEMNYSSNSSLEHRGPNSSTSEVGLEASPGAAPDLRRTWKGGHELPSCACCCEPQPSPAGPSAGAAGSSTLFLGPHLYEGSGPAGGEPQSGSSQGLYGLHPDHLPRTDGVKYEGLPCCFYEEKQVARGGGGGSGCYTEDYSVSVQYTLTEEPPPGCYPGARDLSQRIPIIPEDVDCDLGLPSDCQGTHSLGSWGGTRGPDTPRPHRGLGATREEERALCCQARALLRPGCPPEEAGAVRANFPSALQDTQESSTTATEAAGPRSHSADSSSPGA

These are yes or no findings as the source states them, for the method shown. Binding seen in cells or lysates may run through a third protein. Here binding means that the protein was enriched with, or labelled near, the bait; the list need not be complete.

For the assay, the target named is EGFR (BCG823 cells) (human (endogenous in BCG823)) (UniProt P00533). Nature of the assay: affinity purification with mass spectrometry; BCG823 cells starved overnight, 50 ng/ml EGF for 120 minutes; 1 mg lysate with 5 μg EGFR (Ab-13) antibody, protein A-Sepharose, washed with NETN buffer (20 mM Tris pH7.5, 1 mM EDTA, 0.5% NP-40, 150 mM NaCl); LC-MS/MS.

Turning to “endogenous ZNRF3 protein (BCG823 cells) (from UniProt Q9ULT6 56-936) (enzyme)”, the binding entry was “binds”.
